Results published in publication PMC4924746.
These are yes or no findings as the source states them, for the method shown. In cells and extracts the contact can be indirect. Some entries that bind do so weakly or less than the wild type. Tags and fused reporters may be left off the sequences shown.

Chains of the proteins cited; added tags and fusions are not shown. Residues count along the entry.
UniProt P02545, residues 1-646: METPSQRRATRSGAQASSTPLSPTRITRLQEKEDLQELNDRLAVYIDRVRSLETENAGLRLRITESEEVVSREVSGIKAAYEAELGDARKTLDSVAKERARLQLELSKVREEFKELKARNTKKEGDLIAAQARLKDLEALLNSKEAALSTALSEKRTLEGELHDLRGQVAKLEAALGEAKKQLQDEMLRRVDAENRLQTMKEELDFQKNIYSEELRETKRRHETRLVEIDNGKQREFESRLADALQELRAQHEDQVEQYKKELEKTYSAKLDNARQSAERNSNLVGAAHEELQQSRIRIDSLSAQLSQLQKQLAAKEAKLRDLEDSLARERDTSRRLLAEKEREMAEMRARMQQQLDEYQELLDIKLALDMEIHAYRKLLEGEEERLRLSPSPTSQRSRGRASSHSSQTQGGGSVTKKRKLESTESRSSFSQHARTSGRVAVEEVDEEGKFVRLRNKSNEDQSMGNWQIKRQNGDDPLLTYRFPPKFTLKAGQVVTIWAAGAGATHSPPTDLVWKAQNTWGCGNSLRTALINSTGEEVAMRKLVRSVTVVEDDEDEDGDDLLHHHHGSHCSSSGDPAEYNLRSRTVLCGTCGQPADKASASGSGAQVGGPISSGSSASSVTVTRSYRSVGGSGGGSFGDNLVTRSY

Target: T1, SPANX-C-V5 fusion protein (UniProt Q9NY87)
T1 sequence: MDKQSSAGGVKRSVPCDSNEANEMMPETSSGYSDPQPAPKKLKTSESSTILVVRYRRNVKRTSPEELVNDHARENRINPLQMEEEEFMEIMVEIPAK
Assay: co-IP; anti-V5 immunoprecipitates of cell lysates, immunoblotted with antibodies against V5 and the endogenous partner; immunoprecipitation as described in ref. 59

binding: binds
Substance: Lamin A/C (Lamin A and Lamin C, products of the LMNA gene) (from UniProt P02545 1-646)
